Source: PubChem BioAssay AID1469 (National Center for Advancing Translational Sciences (NCATS), 2008)
“And” between values parts separate entries of the source, which are not always exact repeats. Equal entries are not always repeated. Out of some 280,000 compounds screened, about 180 (0.064%) were called active. Inconclusive results, whose numbers are uncertain, are shown with a selection of clear calls. Calls follow the shape of the dose curve; as a rule, active = well fitted inhibition curve with a large enough effect; inconclusive = small, poorly fitted or top-dose-only effect, or effect the other way; inactive = flat fitted curve, though single readings scatter. Potencies of inconclusive entries are doubtful fits and often do not repeat.

Protein sequences, listed by entry. Tags and fused reporters are not part of them. Lines headed by an entry give the natural chain unless they say otherwise; changes in a name come on top.
UniProt P10828: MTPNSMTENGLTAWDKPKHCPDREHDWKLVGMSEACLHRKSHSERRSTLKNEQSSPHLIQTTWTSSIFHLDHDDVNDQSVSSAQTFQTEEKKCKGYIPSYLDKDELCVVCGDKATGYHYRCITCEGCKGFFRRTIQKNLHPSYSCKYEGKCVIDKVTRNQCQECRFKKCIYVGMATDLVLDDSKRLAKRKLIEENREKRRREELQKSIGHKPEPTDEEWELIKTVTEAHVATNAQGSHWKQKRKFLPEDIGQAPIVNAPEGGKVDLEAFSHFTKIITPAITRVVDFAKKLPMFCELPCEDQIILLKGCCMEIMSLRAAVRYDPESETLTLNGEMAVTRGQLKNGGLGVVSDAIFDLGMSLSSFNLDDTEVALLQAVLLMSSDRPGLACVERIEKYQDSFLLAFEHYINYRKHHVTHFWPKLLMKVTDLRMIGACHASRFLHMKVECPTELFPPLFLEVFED

Molecular target: Thyroid hormone receptor beta (Homo sapiens) (UniProt P10828)
Assay: qHTS for Inhibitors of the Interaction of Thyroid Hormone Receptor and Steroid Receptor Coregulator 2; also: nearly all actives have a fitted effect of over 50% in size;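 as to activity change, negative = inhibition: plate controls were bound peptide for no effect and peptide without receptor for full effect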
Details: TRbeta-SRC2 peptide binding, fluorescence polarization, receptor liganded with 1 µM T3; series mostly up to 106 µM; activity change, negative = inhibition: at the top concentration
In short: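 Assay buffer: 20 mM Tris-HCl, 100 mM NaCl, 10% glycerol, 1 mM EDTA, 0.01% NP-40, 1 mM DTT, 1 uM T3, 5% DMSO; TRb LBD 0.6 uM, Texas Red SRC2 20 nM; FP after 5 hr.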
Potency is read from the fitted curve at half-maximal effect.

Compound	Potency	activity change, negative = inhibition
CC(C)[C@@H]1NC(=O)c2cc([N+](=O)[O-])cc(I)c2NCCC[C@@H](C(N)=O)NC(=O)[C@H](CO)NC1=O	inconclusive: 70.8 µM [activator, single point]	–
CCN(CC)c1ccc(NC2=C(Cl)C(=O)c3ccccc3C2=O)cc1	active: 28.2 µM	–
COc1cc(N2CCOCC2)ccc1C=C(C#N)C#N	inconclusive: 70.8 µM [inhibitor, single point]	–
Cc1ccc(COc2ccc(-c3cc(C(F)(F)F)n4nc(C)cc4n3)cc2)cc1	inconclusive: 8.91 µM [inhibitor, full curve, poor fit]	–
O=S(=O)(O)c1ccc2c(N=Nc3ccc(S(=O)(=O)O)c4ccccc34)c(O)c(S(=O)(=O)O)cc2c1	inconclusive: 39.8 µM [activator, partial curve]	–
Oc1ccccc1/C=N/c1c(-c2ccco2)nc2ccccn12	inconclusive: 50.1 µM [inhibitor, partial curve]	–
COc1ccc(-c2c(C)nn3c(-c4ccccc4)cc(C)nc23)cc1OC	–	inactive: -3.76%
O=C(N/N=C/C=C/c1ccccc1)c1n[nH]c2c1CCC2	–	inactive: 1.15%
CCCOc1cc(N(CC)CC)ccc1/C=C(/C#N)c1nc2ccc(C)cc2[nH]1	inconclusive: 70.8 µM [inhibitor, single point]	–
Cc1nc(N2CCCC2)c2c(C(=O)N3CCN(c4ccc(F)cc4)CC3)c(C)oc2n1	–	inactive: 1.45%
COCCn1c(N)c(S(=O)(=O)c2cccs2)c2nc3ccccc3nc21	inconclusive: 12.6 µM [inhibitor, full curve]	–
O=C1C[C@@H](O)[C@@H](O)[C@H]2[C@@H]3C(=O)N(Cc4ccccc4)C(=O)[C@@H]3CC[C@H]12	–	inactive: 4.41% [at 11.2 µM] and inactive: -1.76% [at 11.2 µM]
CCC1(C)Cc2c(C#N)c(N)sc(=S)c2CO1 (stereo not drawn)	inconclusive: 50.1 µM [inhibitor, partial curve]	–
COc1ccc(C)cc1S(=O)(=O)Nc1ccc(F)c(Cl)c1	inconclusive: 0.398 µM [inhibitor, full curve]	–
Cc1cccc(C)c1NC(=O)COC(=O)c1cccc2c1C(=O)c1ccccc1C2=O	inconclusive: 70.8 µM [inhibitor, single point]	–
COc1ccc(-n2nc3cc(C)c(N)c(Br)c3n2)cc1	inconclusive: 39.8 µM [inhibitor, partial curve]	–
CCC(Sc1nc2ccc(N)cc2s1)C(=O)Nc1nccs1 (stereo not drawn)	inconclusive: 0.0355 µM [inhibitor, full curve]	–
CN(C)c1ccc(C=Nc2ccc(N(C)C)cc2)cc1	active: 50.1 µM	–

Two entries picked at random from those above, as already listed:
Compound	Potency	activity change, negative = inhibition
Cc1ccc(COc2ccc(-c3cc(C(F)(F)F)n4nc(C)cc4n3)cc2)cc1	inconclusive: 8.91 µM [inhibitor, full curve, poor fit]	–
CC(C)[C@@H]1NC(=O)c2cc([N+](=O)[O-])cc(I)c2NCCC[C@@H](C(N)=O)NC(=O)[C@H](CO)NC1=O	inconclusive: 70.8 µM [activator, single point]	–
